The source of these data is the supplement of paper PMC10077471.

In all, about 1,900 compounds were measured (“excess over highest single agent (ExcessHSA) synergy score, 6x6 matrix”: median about -83, lowest 2% from about -370 on). The list shows a part of the results.

The subject of the test is NCI-H446. Description: excess over highest single agent (ExcessHSA) synergy score, 6x6 matrix; higher = less synergy (more negative = stronger synergy). The note with it: 72 h; CellTiter-Glo viability. In general terms: Cellular ATP, detected with luciferase, serves as a proxy for viable cell number.
As for `O=C(O)CC[C@H]1CC[C@@](c2cc(F)ccc2F)(S(=O)(=O)c2ccc(Cl)cc2)CC1` + Cc1sc2c(c1C)C(c1ccc(Cl)cc1)=N[C@@H](CC(=O)OC(C)(C)C)c1nnc(C)n1-2 [NCGC00250412-19], the “excess over highest single agent” value is -194. As for `C/C=C1\NC(=O)[C@H]2CSSCC/C=C/[C@H](CC(=O)N[C@H](C(C)C)C(=O)N2)OC(=O)[C@H](C(C)C)NC1=O` + Cc1sc2c(c1C)C(c1ccc(Cl)cc1)=N[C@@H](CC(=O)OC(C)(C)C)c1nnc(C)n1-2 [NCGC00250412-19], the figure is -38.7; as for `CN(C)CC(C)(C)CNc1nn2c(-c3ccccc3)nnc2cc1C1CCC1` + Cc1sc2c(c1C)C(c1ccc(Cl)cc1)=N[C@@H](CC(=O)OC(C)(C)C)c1nnc(C)n1-2 [NCGC00250412-19], -2.17; as for `C[C@@H]1[C@H](O)[C@@H](C)/C=C/C=C/C=C/C=C/C=C/C=C/C=C/[C@H](O[C@@H]2O[C@H](C)[C@@H](O)[C@H](N)[C@@H]2O)C[C@@H]2O[C@](O)(C[C@@H](O)C[C@@H](O)[C@H](O)CC[C@@H](O)C[C@@H](O)CC(=O)O[C@H]1C)C[C@H](O)[C@H]2C(=O)O` + Cc1sc2c(c1C)C(c1ccc(Cl)cc1)=N[C@@H](CC(=O)OC(C)(C)C)c1nnc(C)n1-2 [NCGC00250412-19], -139. For the compound `CCOC(=O)C(C)(C)Oc1ccc(Cl)cc1` + Cc1sc2c(c1C)C(c1ccc(Cl)cc1)=N[C@@H](CC(=O)OC(C)(C)C)c1nnc(C)n1-2 [NCGC00250412-19], the “excess over highest single agent” value came to 258. As for `CN(C)c1ccc(O)c2c1C[C@H]1C[C@H]3[C@H](N(C)C)C(=O)C(C(N)=O)=C(O)[C@@]3(O)C(=O)C1=C2O` + Cc1sc2c(c1C)C(c1ccc(Cl)cc1)=N[C@@H](CC(=O)OC(C)(C)C)c1nnc(C)n1-2 [NCGC00250412-19], the figure is -85.8. For `CNc1nccc(-c2cccnc2Oc2cc(C(=O)Nc3cccc(C(F)(F)F)c3)ccc2C)n1` + Cc1sc2c(c1C)C(c1ccc(Cl)cc1)=N[C@@H](CC(=O)OC(C)(C)C)c1nnc(C)n1-2 [NCGC00250412-19], the “excess over highest single agent” value was -146. As for `C[C@H](NC(=O)[C@@H](O)c1cc(F)cc(F)c1)C(=O)N[C@@H]1C(=O)N(C)c2ccccc2-c2ccccc21` + Cc1sc2c(c1C)C(c1ccc(Cl)cc1)=N[C@@H](CC(=O)OC(C)(C)C)c1nnc(C)n1-2 [NCGC00250412-19], the figure is -3.99.

With `CCS(=O)(=O)Nc1ccc2[nH]c(O)c(C(=Nc3ccc(CN4CCCCC4)cc3)c3ccccc3)c2c1` + Cc1sc2c(c1C)C(c1ccc(Cl)cc1)=N[C@@H](CC(=O)OC(C)(C)C)c1nnc(C)n1-2 [NCGC00250412-19], the “excess over highest single agent” value was -393. As for `N=C1N[C@H]2[C@H](CS[C@H]2CCCCC(=O)O)N1` + Cc1sc2c(c1C)C(c1ccc(Cl)cc1)=N[C@@H](CC(=O)OC(C)(C)C)c1nnc(C)n1-2 [NCGC00250412-19], the figure is -1.1. For the compound `CCC(=O)O[C@H]1CC[C@H]2[C@@H]3CCC4=CC(=O)CC[C@]4(C)[C@H]3CC[C@]12C` + Cc1sc2c(c1C)C(c1ccc(Cl)cc1)=N[C@@H](CC(=O)OC(C)(C)C)c1nnc(C)n1-2 [NCGC00250412-19], the “excess over highest single agent” value is -35.9. As for `N#Cc1c(C2CCNCC2)cc(-c2c(O)cccc2OCC2CC2)nc1N` + Cc1sc2c(c1C)C(c1ccc(Cl)cc1)=N[C@@H](CC(=O)OC(C)(C)C)c1nnc(C)n1-2 [NCGC00250412-19], the figure is 31; as for `O=c1cc(-c2ccc(O)c(O)c2)oc2cc(O)cc(O)c12` + Cc1sc2c(c1C)C(c1ccc(Cl)cc1)=N[C@@H](CC(=O)OC(C)(C)C)c1nnc(C)n1-2 [NCGC00250412-19], -158; as for `O=C(Cc1ccc(-c2ccc(OCCN3CCOCC3)cc2)cn1)NCc1ccccc1` + Cc1sc2c(c1C)C(c1ccc(Cl)cc1)=N[C@@H](CC(=O)OC(C)(C)C)c1nnc(C)n1-2 [NCGC00250412-19], -148. To `NCCCCNCCCN` + Cc1sc2c(c1C)C(c1ccc(Cl)cc1)=N[C@@H](CC(=O)OC(C)(C)C)c1nnc(C)n1-2 [NCGC00250412-19] belongs 60.

Take `Nc1ncn([C@H]2C[C@H](O)[C@@H](CO)O2)c(=O)n1` + Cc1sc2c(c1C)C(c1ccc(Cl)cc1)=N[C@@H](CC(=O)OC(C)(C)C)c1nnc(C)n1-2 [NCGC00250412-19]: the “excess over highest single agent” value is -256.

Turning to `COC(=O)Nc1ccc(-c2nc(N3CCOCC3)c3cnn(C4CCN(Cc5cccnc5)CC4)c3n2)cc1` + Cc1sc2c(c1C)C(c1ccc(Cl)cc1)=N[C@@H](CC(=O)OC(C)(C)C)c1nnc(C)n1-2 [NCGC00250412-19], the “excess over highest single agent” value is -214. With `CCn1c(-c2nonc2N)nc2cncc(CNC3CCNCC3)c21` + Cc1sc2c(c1C)C(c1ccc(Cl)cc1)=N[C@@H](CC(=O)OC(C)(C)C)c1nnc(C)n1-2 [NCGC00250412-19], the “excess over highest single agent” value came to 51.1. Take `CCN[C@H]1C[C@H](C)S(=O)(=O)c2sc(S(N)(=O)=O)cc21` + Cc1sc2c(c1C)C(c1ccc(Cl)cc1)=N[C@@H](CC(=O)OC(C)(C)C)c1nnc(C)n1-2 [NCGC00250412-19]: the “excess over highest single agent” value is -134.

Consider `O=C1Cc2cc(CCN3CCN(c4nsc5ccccc45)CC3)c(Cl)cc2N1` + Cc1sc2c(c1C)C(c1ccc(Cl)cc1)=N[C@@H](CC(=O)OC(C)(C)C)c1nnc(C)n1-2 [NCGC00250412-19], for which the “excess over highest single agent” value was -87.1. To `Clc1ccc(COC(Cn2ccnc2)c2ccc(Cl)cc2Cl)c(Cl)c1` (configuration not stated) + Cc1sc2c(c1C)C(c1ccc(Cl)cc1)=N[C@@H](CC(=O)OC(C)(C)C)c1nnc(C)n1-2 [NCGC00250412-19] belongs -184; to `CO[C@H]1O[C@@H]2O[C@@]3(C)CC[C@H]4[C@H](C)CC[C@@H]([C@H]1C)[C@@]24OO3` + Cc1sc2c(c1C)C(c1ccc(Cl)cc1)=N[C@@H](CC(=O)OC(C)(C)C)c1nnc(C)n1-2 [NCGC00250412-19], -261; to `NC12CC3CC(CC(C3)C1)C2` + Cc1sc2c(c1C)C(c1ccc(Cl)cc1)=N[C@@H](CC(=O)OC(C)(C)C)c1nnc(C)n1-2 [NCGC00250412-19], -91.8. Consider `CO[C@@H](C(=O)N1Cc2[nH]nc(NC(=O)c3ccc(N4CCN(C)CC4)cc3)c2C1)c1ccccc1` + Cc1sc2c(c1C)C(c1ccc(Cl)cc1)=N[C@@H](CC(=O)OC(C)(C)C)c1nnc(C)n1-2 [NCGC00250412-19], for which the “excess over highest single agent” value was -288.

On to `CN1CCN(C2=Nc3cc(Cl)ccc3Nc3ccccc32)CC1` + Cc1sc2c(c1C)C(c1ccc(Cl)cc1)=N[C@@H](CC(=O)OC(C)(C)C)c1nnc(C)n1-2 [NCGC00250412-19], for which the “excess over highest single agent” value is -31.6. On to `Cc1sc2c(c1C)C(c1ccc(Cl)cc1)=N[C@@H](CC(=O)OC(C)(C)C)c1nnc(C)n1-2` + Cc1sc2c(c1C)C(c1ccc(Cl)cc1)=N[C@@H](CC(=O)OC(C)(C)C)c1nnc(C)n1-2 [NCGC00250412-19], for which the “excess over highest single agent” value is -86.2. As for `CCn1nnc2c(N3CCOCC3)nc(-c3ccc(NC(=O)Nc4ccc(C(=O)N5CCN(C)CC5)cc4)cc3)nc21` + Cc1sc2c(c1C)C(c1ccc(Cl)cc1)=N[C@@H](CC(=O)OC(C)(C)C)c1nnc(C)n1-2 [NCGC00250412-19], the figure is -198; as for `NS(=O)(=O)c1cc(C(=O)O)c(NCc2ccco2)cc1Cl` + Cc1sc2c(c1C)C(c1ccc(Cl)cc1)=N[C@@H](CC(=O)OC(C)(C)C)c1nnc(C)n1-2 [NCGC00250412-19], -28.8; as for `CCCn1c(=O)c2[nH]c(-c3cnn(Cc4cccc(C(F)(F)F)c4)c3)nc2n(CC)c1=O` + Cc1sc2c(c1C)C(c1ccc(Cl)cc1)=N[C@@H](CC(=O)OC(C)(C)C)c1nnc(C)n1-2 [NCGC00250412-19], -49.1. As for `CC(=O)N1CCN(c2ccc(OCc3nn(C)c(C)c3-c3cccc4c(CCCOc5cc(C)c(Cl)c(C)c5)c(C(=O)O)n(Cc5cccnc5)c34)cc2)CC1` + Cc1sc2c(c1C)C(c1ccc(Cl)cc1)=N[C@@H](CC(=O)OC(C)(C)C)c1nnc(C)n1-2 [NCGC00250412-19], the figure is 158; as for `CN[C@H]1CN(c2ccc3c(=O)c(C(=O)O)cn(-c4nccs4)c3n2)C[C@@H]1OC` + Cc1sc2c(c1C)C(c1ccc(Cl)cc1)=N[C@@H](CC(=O)OC(C)(C)C)c1nnc(C)n1-2 [NCGC00250412-19], -272. As to `COc1cc(C(=O)NS(=O)(=O)c2ccccc2C)ccc1Cc1cn(C)c2ccc(NC(=O)OC3CCCC3)cc12` + Cc1sc2c(c1C)C(c1ccc(Cl)cc1)=N[C@@H](CC(=O)OC(C)(C)C)c1nnc(C)n1-2 [NCGC00250412-19], the “excess over highest single agent” value was -179. As for `Cc1cc(C2CCCCC2)n(O)c(=O)c1` + Cc1sc2c(c1C)C(c1ccc(Cl)cc1)=N[C@@H](CC(=O)OC(C)(C)C)c1nnc(C)n1-2 [NCGC00250412-19], the figure is -163; as for `CCc1cncnc1N1CCN(Cc2nc3ccc(C(F)(F)F)cc3[nH]2)CC1` + Cc1sc2c(c1C)C(c1ccc(Cl)cc1)=N[C@@H](CC(=O)OC(C)(C)C)c1nnc(C)n1-2 [NCGC00250412-19], 36.6. Consider `O=C(O)C(=O)O.[NH-]C1CCCCC1[NH-].[Pt+2]` (configuration not stated) + Cc1sc2c(c1C)C(c1ccc(Cl)cc1)=N[C@@H](CC(=O)OC(C)(C)C)c1nnc(C)n1-2 [NCGC00250412-19], for which the “excess over highest single agent” value was -135. To `O=C(CCCN1CCN(c2ccc(F)cc2)CC1)NC1c2ccccc2CSc2ccccc21` (configuration not stated) + Cc1sc2c(c1C)C(c1ccc(Cl)cc1)=N[C@@H](CC(=O)OC(C)(C)C)c1nnc(C)n1-2 [NCGC00250412-19] belongs -52.7.

On to `NCC(=O)Nc1ccc(-n2nc(C(F)(F)F)cc2-c2ccc3c(ccc4ccccc43)c2)cc1` + Cc1sc2c(c1C)C(c1ccc(Cl)cc1)=N[C@@H](CC(=O)OC(C)(C)C)c1nnc(C)n1-2 [NCGC00250412-19], for which the “excess over highest single agent” value stood at 13.2.
